The values below come from patent US20150376581.

For at least one entry, the source does not settle the construct or the ends of the probe. Results from cells or extracts need not show a direct contact.

The data set has as its target EGFR (epidermal growth factor receptor) on A431 cells (UniProt P00533). The experiment in a line: flow cytometry. The note with it: 2'-OMe at all nucleotides; 50 nM RNA, transcription buffer, 25 C 30 min; washes DPBS + 5 mM MgCl2; no-aptamer control; protein on the cell surface; protein details: A431 cells (ATCC).

Turning to “GGCGCUCCGACCUUAGUCUCUGUGCCGCUAUAAUGCACGGAUUUAAUCGCCGUAGAAAAGCAUGUCAAAGCCGGAACCGUGUAGCACAGCAGA”, the binding result is “binds”.
